Results from article PMC6424098.
These are yes or no findings as the source states them, for the method shown. In cells and extracts the contact can be indirect. Some results given as binding are weak or reduced against the parent protein; the word gives no strength. Where a sequence is shown, tags or fusion partners need not be part of it.

The chains behind the UniProt entries cited, without tags or fusion partners. Where a name states a change or a piece, a line headed by the entry shows the natural chain unless it says otherwise.
UniProt Q04726, whole entry: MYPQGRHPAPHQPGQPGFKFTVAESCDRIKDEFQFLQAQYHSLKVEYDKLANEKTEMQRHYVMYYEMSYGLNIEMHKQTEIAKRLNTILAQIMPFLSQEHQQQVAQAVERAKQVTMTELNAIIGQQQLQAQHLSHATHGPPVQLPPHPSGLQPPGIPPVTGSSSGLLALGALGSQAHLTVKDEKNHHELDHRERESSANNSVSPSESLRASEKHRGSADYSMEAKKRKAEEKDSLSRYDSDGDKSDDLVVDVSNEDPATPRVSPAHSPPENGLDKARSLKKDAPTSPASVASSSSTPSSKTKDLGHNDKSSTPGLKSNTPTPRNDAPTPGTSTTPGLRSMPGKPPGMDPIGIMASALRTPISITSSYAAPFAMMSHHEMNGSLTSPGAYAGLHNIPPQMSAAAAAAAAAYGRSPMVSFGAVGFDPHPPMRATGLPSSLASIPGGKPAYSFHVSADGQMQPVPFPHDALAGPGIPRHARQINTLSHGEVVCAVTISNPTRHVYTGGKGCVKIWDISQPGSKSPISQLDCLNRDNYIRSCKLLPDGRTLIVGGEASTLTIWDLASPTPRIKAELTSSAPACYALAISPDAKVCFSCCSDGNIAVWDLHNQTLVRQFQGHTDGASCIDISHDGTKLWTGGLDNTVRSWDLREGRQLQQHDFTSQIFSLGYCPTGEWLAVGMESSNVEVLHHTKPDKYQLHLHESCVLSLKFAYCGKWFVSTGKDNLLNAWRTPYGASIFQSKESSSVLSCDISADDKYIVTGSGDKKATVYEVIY

Assays:
[1] = target: hemagglutinin (HA)-tagged TLE3 (UniProt Q04726); assay: co-IP; co-expression of WT C/EBPβ or mutants (R193A, R193L), TLE3, with or without CARM1 (Figure 5E)
[2] = target: hemagglutinin (HA)-tagged TLE3 (UniProt Q04726); assay: co-IP; WT and mutant C/EBPβ with HA-tagged TLE3; pull down of TLE3 by immunoprecipitation (Figure 5C)

B1: FLAG-tagged C/EBPβ R193L (protein, UniProt Q05826 1-328)
chain: MQRLVAWDAACLPIQPPAFKSMEVANFYYEADCLAALNKLHPRAAGGRSMTELTVGDHERAIDFSPYLDPLAASQQPAQPPPPAAAAGGNFEPACSSGGQDFLSDLFAEDYKGSGGGKKPDYTYISLTRHGHPCGSQSHKPGVLPGCFPPQIVETKVEPVFETLDSCKGPRKEEGGAGPGPGGMSSPYGSTVLSYLGYQSVPSGSSGNLSTSSSSSPPGTPNPSESSKSAAGAGGYSGPPAGKNKPKKCVDKHSDEYKLRRERNNIAVRKSRDKAKMRNLETQHKVLELTAENERLQKKVEQLSRELSTLRNLFKQLPEPLLASSPRC
- binding [1]: binds
- binding [2]: binds

B2: FLAG-tagged C/EBPβ R193A (protein, UniProt Q05826 1-328)
chain: MQRLVAWDAACLPIQPPAFKSMEVANFYYEADCLAALNKLHPRAAGGRSMTELTVGDHERAIDFSPYLDPLAASQQPAQPPPPAAAAGGNFEPACSSGGQDFLSDLFAEDYKGSGGGKKPDYTYISLTRHGHPCGSQSHKPGVLPGCFPPQIVETKVEPVFETLDSCKGPRKEEGGAGPGPGGMSSPYGSTVASYLGYQSVPSGSSGNLSTSSSSSPPGTPNPSESSKSAAGAGGYSGPPAGKNKPKKCVDKHSDEYKLRRERNNIAVRKSRDKAKMRNLETQHKVLELTAENERLQKKVEQLSRELSTLRNLFKQLPEPLLASSPRC
- binding [1]: no binding
- binding [2]: no binding
